Results are given in words; binding and its absence hold for the method and conditions named.
Target: T1, full-length mouse Staufen2 (mStau2 FL) (mouse), Q8CJ67
T1 chain: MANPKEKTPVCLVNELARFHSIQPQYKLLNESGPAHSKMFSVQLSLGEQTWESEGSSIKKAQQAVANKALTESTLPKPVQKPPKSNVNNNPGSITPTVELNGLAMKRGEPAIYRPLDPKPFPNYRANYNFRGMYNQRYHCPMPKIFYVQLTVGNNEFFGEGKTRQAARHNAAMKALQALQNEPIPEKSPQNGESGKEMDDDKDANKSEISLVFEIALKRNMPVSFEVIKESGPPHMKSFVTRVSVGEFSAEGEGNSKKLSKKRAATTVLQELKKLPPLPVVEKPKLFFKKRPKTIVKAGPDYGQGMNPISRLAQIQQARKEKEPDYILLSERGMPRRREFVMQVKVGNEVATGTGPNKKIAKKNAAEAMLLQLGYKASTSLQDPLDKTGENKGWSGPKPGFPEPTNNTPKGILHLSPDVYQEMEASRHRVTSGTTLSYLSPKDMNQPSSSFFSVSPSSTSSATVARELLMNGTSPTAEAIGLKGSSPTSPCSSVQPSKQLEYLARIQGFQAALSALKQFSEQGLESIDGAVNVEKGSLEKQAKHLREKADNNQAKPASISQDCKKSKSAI
Assay: SEC-SLS (static light scattering after SEC); SEC on 10/300 Superdex200 Increase, 7 °C, flow rate 0.5 mL per min, 270 Dual Detector and VE3580 RI Detector, calibrated with BSA; both purified
Settings: remark: other sources report otherwise

binding: no binding
B1: full-length mouse Staufen2 (mStau2 FL), Q8CJ67 1-570 (protein)
chain: MANPKEKTPVCLVNELARFHSIQPQYKLLNESGPAHSKMFSVQLSLGEQTWESEGSSIKKAQQAVANKALTESTLPKPVQKPPKSNVNNNPGSITPTVELNGLAMKRGEPAIYRPLDPKPFPNYRANYNFRGMYNQRYHCPMPKIFYVQLTVGNNEFFGEGKTRQAARHNAAMKALQALQNEPIPEKSPQNGESGKEMDDDKDANKSEISLVFEIALKRNMPVSFEVIKESGPPHMKSFVTRVSVGEFSAEGEGNSKKLSKKRAATTVLQELKKLPPLPVVEKPKLFFKKRPKTIVKAGPDYGQGMNPISRLAQIQQARKEKEPDYILLSERGMPRRREFVMQVKVGNEVATGTGPNKKIAKKNAAEAMLLQLGYKASTSLQDPLDKTGENKGWSGPKPGFPEPTNNTPKGILHLSPDVYQEMEASRHRVTSGTTLSYLSPKDMNQPSSSFFSVSPSSTSSATVARELLMNGTSPTAEAIGLKGSSPTSPCSSVQPSKQLEYLARIQGFQAALSALKQFSEQGLESIDGAVNVEKGSLEKQAKHLREKADNNQAKPASISQDCKKSKSAI

— PMC6477676, “Staufen2-mediated RNA recognition and localization requires combinatorial action of multiple domains”
